This is one part of the list.
Key:
Test in all cases: log2 fold change, soluble protein after heating vs DMSO (PISA); higher = thermal stabilisation; K562 lysate, 10 uM; active = over 0.2 and 3.5 SD of the protein, either way, in both replicates (recomputed)
nilotinib = compound: Cc1cn(-c2cc(NC(=O)c3ccc(C)c(Nc4nccc(-c5cccnc5)n4)c3)cc(C(F)(F)F)c2)cn1 [nilotinib]
In short: (§1)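 K562 pellets were dounce-homogenised in PBS pH 7.4 with 1 mM MgCl2, and the crude extract at 1 mg/mL protein was treated with 10 μM compound for 30 min. Aliquots were heated for 3 min across 48°C-58°C, pooled, and brought to 0.5% NP-40 at 4°C; soluble protein was the supernatant after 21,000xg for 90 min. Soluble protein was quantified by TMTpro 16plex LC-MS/MS with channel sums equalised, and reported as log2 fold change in thermal stability against DMSO controls, with values from duplicates.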

Sequences of proteins named here, by UniProt entry; tags and fusion partners are left off. A change or cut given only in a name is not applied to a line headed by its entry.
UniProt Q14676: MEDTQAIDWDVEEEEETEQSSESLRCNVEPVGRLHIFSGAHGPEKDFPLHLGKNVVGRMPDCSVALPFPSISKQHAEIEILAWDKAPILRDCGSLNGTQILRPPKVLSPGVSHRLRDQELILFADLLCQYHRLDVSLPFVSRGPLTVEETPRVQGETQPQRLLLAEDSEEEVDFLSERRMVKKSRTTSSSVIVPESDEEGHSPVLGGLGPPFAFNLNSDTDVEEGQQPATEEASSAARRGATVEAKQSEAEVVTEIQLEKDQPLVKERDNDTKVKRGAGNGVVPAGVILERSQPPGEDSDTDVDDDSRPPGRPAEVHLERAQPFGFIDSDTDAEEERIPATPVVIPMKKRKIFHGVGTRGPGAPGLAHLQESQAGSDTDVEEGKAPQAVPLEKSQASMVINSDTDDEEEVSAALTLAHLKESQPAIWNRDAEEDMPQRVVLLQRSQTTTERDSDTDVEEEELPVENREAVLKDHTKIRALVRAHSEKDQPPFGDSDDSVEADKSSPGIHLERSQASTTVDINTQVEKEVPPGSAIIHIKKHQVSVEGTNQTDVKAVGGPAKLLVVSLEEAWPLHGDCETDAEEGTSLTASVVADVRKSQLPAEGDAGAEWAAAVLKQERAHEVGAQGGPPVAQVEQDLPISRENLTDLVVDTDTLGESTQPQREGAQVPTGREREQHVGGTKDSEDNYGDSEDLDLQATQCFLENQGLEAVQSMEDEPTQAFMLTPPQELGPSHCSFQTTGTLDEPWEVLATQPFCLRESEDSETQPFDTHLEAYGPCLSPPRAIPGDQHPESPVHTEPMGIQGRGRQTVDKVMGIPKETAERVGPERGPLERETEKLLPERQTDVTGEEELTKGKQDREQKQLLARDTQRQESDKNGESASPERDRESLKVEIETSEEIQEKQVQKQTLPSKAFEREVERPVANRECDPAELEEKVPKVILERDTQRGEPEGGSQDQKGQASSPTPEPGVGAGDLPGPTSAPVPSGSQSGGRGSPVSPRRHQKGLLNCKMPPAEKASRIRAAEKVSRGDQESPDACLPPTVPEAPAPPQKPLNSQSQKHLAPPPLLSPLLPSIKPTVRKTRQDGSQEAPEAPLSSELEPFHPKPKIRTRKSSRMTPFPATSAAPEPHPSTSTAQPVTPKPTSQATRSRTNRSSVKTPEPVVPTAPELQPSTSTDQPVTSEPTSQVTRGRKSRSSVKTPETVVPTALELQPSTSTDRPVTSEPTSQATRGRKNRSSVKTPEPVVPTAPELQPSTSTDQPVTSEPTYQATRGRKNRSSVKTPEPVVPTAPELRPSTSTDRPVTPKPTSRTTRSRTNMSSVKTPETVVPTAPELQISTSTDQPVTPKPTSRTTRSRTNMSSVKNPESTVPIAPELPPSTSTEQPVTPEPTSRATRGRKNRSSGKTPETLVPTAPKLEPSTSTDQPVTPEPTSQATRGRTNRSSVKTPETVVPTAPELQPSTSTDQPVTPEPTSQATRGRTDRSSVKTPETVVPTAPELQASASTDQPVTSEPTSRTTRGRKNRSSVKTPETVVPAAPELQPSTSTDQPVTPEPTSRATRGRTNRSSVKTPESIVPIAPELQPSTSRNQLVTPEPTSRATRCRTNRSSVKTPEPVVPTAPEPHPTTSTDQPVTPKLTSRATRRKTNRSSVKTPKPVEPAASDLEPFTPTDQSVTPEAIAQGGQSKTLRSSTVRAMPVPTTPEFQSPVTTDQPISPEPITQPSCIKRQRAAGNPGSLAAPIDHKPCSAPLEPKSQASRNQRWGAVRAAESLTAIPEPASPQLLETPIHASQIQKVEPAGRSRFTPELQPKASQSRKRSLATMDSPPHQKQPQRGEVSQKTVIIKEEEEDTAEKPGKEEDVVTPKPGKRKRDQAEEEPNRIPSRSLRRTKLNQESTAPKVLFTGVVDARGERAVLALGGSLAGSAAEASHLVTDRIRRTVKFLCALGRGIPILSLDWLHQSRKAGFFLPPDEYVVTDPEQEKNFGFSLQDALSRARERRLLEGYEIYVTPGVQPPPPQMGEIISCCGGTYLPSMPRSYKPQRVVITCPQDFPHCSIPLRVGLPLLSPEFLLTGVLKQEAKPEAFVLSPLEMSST
UniProt Q96PE7: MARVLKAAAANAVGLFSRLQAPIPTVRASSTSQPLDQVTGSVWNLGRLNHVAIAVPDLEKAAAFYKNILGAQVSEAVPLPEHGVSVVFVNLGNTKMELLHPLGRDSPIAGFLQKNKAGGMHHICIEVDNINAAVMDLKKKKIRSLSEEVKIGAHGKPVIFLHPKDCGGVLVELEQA
UniProt P51608, whole entry, looked up: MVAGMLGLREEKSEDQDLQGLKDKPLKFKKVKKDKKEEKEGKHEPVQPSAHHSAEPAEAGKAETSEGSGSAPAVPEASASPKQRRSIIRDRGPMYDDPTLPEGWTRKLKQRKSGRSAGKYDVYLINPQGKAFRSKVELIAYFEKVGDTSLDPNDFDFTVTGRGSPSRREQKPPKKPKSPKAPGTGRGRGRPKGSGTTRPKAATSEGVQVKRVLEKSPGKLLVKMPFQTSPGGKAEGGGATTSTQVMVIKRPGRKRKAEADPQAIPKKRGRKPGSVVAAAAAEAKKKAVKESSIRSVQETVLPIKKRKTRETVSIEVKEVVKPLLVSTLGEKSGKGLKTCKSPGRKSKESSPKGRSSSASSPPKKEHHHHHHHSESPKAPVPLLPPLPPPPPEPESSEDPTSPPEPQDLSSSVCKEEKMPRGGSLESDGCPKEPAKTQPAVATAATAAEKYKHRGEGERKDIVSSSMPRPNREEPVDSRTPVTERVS
UniProt Q6ZWT7: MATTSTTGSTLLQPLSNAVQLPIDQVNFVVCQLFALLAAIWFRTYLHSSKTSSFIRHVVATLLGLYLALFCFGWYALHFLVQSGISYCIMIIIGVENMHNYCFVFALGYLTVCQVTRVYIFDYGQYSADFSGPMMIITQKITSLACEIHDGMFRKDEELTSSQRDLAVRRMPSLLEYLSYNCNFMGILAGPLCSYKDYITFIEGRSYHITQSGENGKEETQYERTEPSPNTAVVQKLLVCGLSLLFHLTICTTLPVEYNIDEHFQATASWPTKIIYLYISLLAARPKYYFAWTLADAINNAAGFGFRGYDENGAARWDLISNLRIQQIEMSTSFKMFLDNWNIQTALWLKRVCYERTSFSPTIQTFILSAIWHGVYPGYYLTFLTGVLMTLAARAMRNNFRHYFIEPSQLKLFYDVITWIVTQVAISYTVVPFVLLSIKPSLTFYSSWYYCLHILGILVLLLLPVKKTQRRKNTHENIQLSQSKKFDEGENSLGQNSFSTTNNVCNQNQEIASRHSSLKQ
UniProt Q8NI22: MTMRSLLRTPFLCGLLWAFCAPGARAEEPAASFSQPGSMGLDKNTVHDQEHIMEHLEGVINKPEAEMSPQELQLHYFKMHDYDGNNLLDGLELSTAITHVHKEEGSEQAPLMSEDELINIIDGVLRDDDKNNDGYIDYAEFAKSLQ
UniProt Q06413, whole entry, looked up: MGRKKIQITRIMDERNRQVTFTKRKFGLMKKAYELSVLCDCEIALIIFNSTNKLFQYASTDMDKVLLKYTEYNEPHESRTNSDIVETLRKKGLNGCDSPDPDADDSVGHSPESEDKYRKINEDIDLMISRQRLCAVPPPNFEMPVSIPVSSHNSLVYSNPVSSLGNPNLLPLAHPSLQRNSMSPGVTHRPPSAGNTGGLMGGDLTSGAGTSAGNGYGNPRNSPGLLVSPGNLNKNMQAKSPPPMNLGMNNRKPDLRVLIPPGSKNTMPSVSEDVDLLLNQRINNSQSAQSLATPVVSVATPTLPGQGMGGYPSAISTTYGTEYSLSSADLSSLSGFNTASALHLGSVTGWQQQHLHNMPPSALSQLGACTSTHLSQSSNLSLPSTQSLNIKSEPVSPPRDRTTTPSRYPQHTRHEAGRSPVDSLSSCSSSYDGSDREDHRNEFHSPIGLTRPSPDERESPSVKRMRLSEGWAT
UniProt Q08431: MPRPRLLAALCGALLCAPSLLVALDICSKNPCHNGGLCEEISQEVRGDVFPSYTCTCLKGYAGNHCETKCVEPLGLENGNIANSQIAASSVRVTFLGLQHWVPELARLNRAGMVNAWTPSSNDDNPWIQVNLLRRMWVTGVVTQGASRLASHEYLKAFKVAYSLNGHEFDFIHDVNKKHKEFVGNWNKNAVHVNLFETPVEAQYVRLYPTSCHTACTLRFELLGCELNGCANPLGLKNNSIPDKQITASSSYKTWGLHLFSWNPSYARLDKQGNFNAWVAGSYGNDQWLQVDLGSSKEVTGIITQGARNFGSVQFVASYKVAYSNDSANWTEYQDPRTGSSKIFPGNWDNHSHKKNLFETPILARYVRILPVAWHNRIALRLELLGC
UniProt P61244, whole entry, looked up: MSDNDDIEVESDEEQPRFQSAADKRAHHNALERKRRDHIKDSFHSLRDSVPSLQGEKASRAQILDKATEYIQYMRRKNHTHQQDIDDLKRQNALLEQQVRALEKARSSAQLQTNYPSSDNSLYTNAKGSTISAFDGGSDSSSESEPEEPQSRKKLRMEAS
UniProt Q9H8H3: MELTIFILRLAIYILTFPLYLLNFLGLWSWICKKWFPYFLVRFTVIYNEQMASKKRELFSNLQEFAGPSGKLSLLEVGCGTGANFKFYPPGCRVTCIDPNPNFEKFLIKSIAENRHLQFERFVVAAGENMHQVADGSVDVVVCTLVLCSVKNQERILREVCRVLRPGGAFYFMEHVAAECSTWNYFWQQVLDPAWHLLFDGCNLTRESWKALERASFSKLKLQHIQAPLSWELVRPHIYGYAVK
UniProt Q86W50: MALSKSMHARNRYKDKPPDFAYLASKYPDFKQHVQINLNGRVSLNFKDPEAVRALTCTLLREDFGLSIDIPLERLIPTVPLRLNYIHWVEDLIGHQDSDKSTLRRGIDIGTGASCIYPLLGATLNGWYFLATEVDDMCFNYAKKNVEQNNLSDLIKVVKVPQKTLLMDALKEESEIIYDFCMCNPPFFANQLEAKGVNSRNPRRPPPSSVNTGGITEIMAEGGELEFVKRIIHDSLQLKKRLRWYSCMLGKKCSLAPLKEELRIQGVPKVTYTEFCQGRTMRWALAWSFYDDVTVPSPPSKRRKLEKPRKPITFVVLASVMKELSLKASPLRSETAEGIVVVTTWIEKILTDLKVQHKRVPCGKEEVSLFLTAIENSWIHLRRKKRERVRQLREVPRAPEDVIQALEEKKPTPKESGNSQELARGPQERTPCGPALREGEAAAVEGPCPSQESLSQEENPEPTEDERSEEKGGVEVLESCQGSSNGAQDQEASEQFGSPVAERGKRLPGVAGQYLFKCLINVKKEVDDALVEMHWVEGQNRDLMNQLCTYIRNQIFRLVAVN

[1] = compound: Cc1nc(Nc2n[nH]c3c2CN(C(=O)N[C@H](CN(C)C)c2ccccc2)C3(C)C)c2sccc2n1
In short: as §1

dasatinib = compound: Cc1nc(Nc2ncc(C(=O)Nc3c(C)cccc3Cl)s2)cc(N2CCN(CCO)CC2)n1 [dasatinib]
In short: as §1

[2] = compound: Cc1ncc(-c2ccnc(Nc3ccc(S(C)(=O)=O)cc3)n2)n1C(C)C
In short: as §1

[3] = compound: Cn1cc(-c2ccc3c(c2)CCN3C(=O)Cc2cccc(C(F)(F)F)c2)c2c(N)ncnc21
In short: as §1

quisinostat = compound: Cn1cc(CNCC2CCN(c3ncc(C(=O)NO)cn3)CC2)c2ccccc21 [quisinostat]
In short: as §1

tipifarnib = compound: Cn1cncc1[C@@](N)(c1ccc(Cl)cc1)c1ccc2c(c1)c(-c1cccc(Cl)c1)cc(=O)n2C [tipifarnib]
In short: as §1

[4] = compound: NC(=O)Nc1cc(-c2cccc(F)c2)sc1C(=O)N[C@H]1CCCNC1
In short: as §1

[5] = compound: NC(=O)c1cnc(N[C@@H]2CCCC[C@@H]2N)nc1Nc1cccc(-n2nccn2)c1
In short: as §1

[6] = compound: NC1(c2ccc(-c3nc4ccn5c(=O)[nH]nc5c4cc3-c3ccccc3)cc2)CCC1
In short: as §1

[7] = compound: NCC(=O)Nc1ccc(-n2nc(C(F)(F)F)cc2-c2ccc3c(ccc4ccccc43)c2)cc1
In short: as §1

vorinostat = compound: O=C(CCCCCCC(=O)Nc1ccccc1)NO [vorinostat]
In short: as §1

silmitasertib = compound: O=C(O)c1ccc2c(c1)nc(Nc1cccc(Cl)c1)c1ccncc12 [silmitasertib]
In short: as §1

[8] = compound: O=C1NC(=O)C(c2cnc3ccccn23)=C1c1cn2c3c(cc(F)cc13)CN(C(=O)N1CCCCC1)CC2
In short: as §1

entospletinib = compound: c1cn2cc(-c3ccc4cn[nH]c4c3)nc(Nc3ccc(N4CCOCC4)cc3)c2n1 [entospletinib]
In short: as §1

Measured: log2 fold change

MDC1 (UniProt Q14676)
inactive: nilotinib 0.019 | [1] -0.037 | dasatinib -0.023 | [2] -0.017 | [3] 0.004 | quisinostat -0.046 | tipifarnib -0.082 | [4] 0.012 | [5] -0.01 | [6] 0.007 | [7] 0.042 | vorinostat 0.062 | silmitasertib -0.021 | [8] -0.028 | entospletinib -0.007

MCEE (UniProt Q96PE7)
inactive: nilotinib 0.017 | [1] -0.008 | dasatinib -0.011 | [2] 0.04 | [3] -0.362 | quisinostat 0.208 | tipifarnib 0.003 | [4] 0 | [5] 0.088 | [6] 0.026 | [7] -0.045 | vorinostat 0.093 | silmitasertib 0.035 | [8] 0.005 | entospletinib -0.12

MECP2 isoform 2 (UniProt P51608)
inactive: nilotinib 0.031 | [1] 0.038 | dasatinib 0.03 | [2] 0.035 | [3] -0.001 | quisinostat -0.045 | tipifarnib -0.003 | [4] 0.039 | [5] 0.03 | [6] -0.034 | [7] 0.117 | vorinostat 0.141 | silmitasertib -0.014 | [8] 0.001 | entospletinib -0.083

MBOAT2 (UniProt Q6ZWT7)
inactive: nilotinib -0.006 | [1] -0.095 | dasatinib -0.178 | [2] 0.024 | [3] -0.027 | quisinostat -0.042 | tipifarnib 0.12 | [4] 0.011 | [5] 0.03 | [6] -0.012 | [7] -0.017 | vorinostat 0.13 | silmitasertib 0.024 | [8] 0.005 | entospletinib -0.092

MCFD2 (UniProt Q8NI22)
inactive: nilotinib 0.017 | [1] 0.057 | dasatinib 0.035 | [2] 0.108 | [3] 0.015 | quisinostat 0.169 | tipifarnib 0.101 | [4] -0.002 | [5] -0.016 | [6] 0.029 | [7] -0.023 | vorinostat 0.358 | silmitasertib -0.196 | [8] 0.029 | entospletinib -0.059

MEF2C isoform 5 (UniProt Q06413)
inactive: nilotinib -0.183 | [1] 0.018 | dasatinib 0.016 | [2] 0.026 | [3] 0.027 | quisinostat -0.018 | tipifarnib -0.08 | [4] 0.036 | [5] 0.097 | [6] 0.047 | [7] 0.02 | vorinostat 0.006 | silmitasertib -0.008 | [8] -0.002 | entospletinib 0.003

MFGE8 (UniProt Q08431)
inactive: nilotinib -0.005 | [1] -0.093 | dasatinib 0.021 | [2] -0.024 | [3] 0.016 | quisinostat -0.015 | tipifarnib 0.017 | [4] -0.002 | [5] -0.082 | [6] -0.046 | [7] -0.036 | vorinostat 0.087 | silmitasertib -0.008 | [8] 0.037 | entospletinib -0.025

MAX (UniProt P61244)
inactive: nilotinib 0.006 | [1] -0.023 | dasatinib 0.046 | [2] 0.029 | [3] 0.009 | quisinostat 0.015 | tipifarnib 0.026 | [4] -0.002 | [5] -0.024 | [6] 0 | [7] 0.032 | vorinostat 0.066 | silmitasertib 0.048 | [8] 0.01 | entospletinib -0.013

METTL7A (UniProt Q9H8H3)
inactive: nilotinib 0.168 | [1] 0.014 | dasatinib 0.198 | [2] -0.01 | [3] 0.096 | quisinostat -0.112 | tipifarnib 0.03 | [4] -0.026 | [5] -0.055 | [6] -0.068 | [7] 0.037 | vorinostat 0.017 | silmitasertib -0.053 | [8] 0.274 | entospletinib -0.001

METTL16 (UniProt Q86W50)
inactive: nilotinib 0 | [1] 0.002 | dasatinib -0.001 | [2] 0.027 | [3] 0.01 | quisinostat 0.04 | tipifarnib -0.03 | [4] 0.011 | [5] 0.005 | [6] 0.023 | [7] -0.024 | vorinostat -0.136 | silmitasertib 0.006 | [8] -0.018 | entospletinib 0.023

Source: the supplement of paper PMC10849652
